# Laboratory results taken from PubChem BioAssay AID1347426 (Functional Genomics Laboratory (NCATS/FGL), 2020).
# About 1,400 (4.5%) of roughly 31,000 sequences were called active.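 Rule for the calls: active = median seed-adjusted z-score above 1 or below -1; inactive = the rest.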 Some of the results follow.
# Assay: Novel Modifiers of Survival Motor Neuron (SMN) Protein: Gene Identification via Genome-wide siRNA Screen;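 note: luminescence tracks full-length SMN protein made from the SMN2 reporter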
# Conditions: HEK293T SMN2-luciferase reporter, siRNA knockdown, 72 h; actives lie on both sides
# Outline: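 Genome-wide siRNA screen (10418 genes, 3 siRNAs each, 1 pmol per well) by reverse transfection in HEK293T cells stably carrying an SMN2-luciferase reporter; luminescence after 72 hours, normalized to negative-control siRNA, log10-transformed, MAD-scored.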
row,Sequence,median seed-adjusted z-score
1,GGUUGGUUGUAUUUCCAGATT against ELOVL5,inactive: -0.734
2,CAAUUGCUCAGGGAUAUGATT against NNT,inactive: 0.336
3,CACCCUCAACGGCCUCAAATT against ELAVL3,inactive: -0.151
4,GCCUCAUCGAGGGAACUAUTT against CCS,inactive: 0.0581
5,GCUUGUUCCAGAAUCGAGATT against KIF18A,inactive: -0.159
6,CGGAGGAAUUUGAGUCUUATT against OC90,inactive: 0.216
7,GGAUACAACGGAUCAUAUUTT against FIGN,inactive: -0.2
8,GCAUCUGUGAGGAUAUUGATT against FBN3,inactive: 0.264
9,CCACUAAGAGAAUACAGGATT against KLK6,inactive: 0.176
10,GCAUGUUGAUAAACAUCCATT against SRD5A1,inactive: 0.0945
11,GGUGUUCAGUGGAAAGCGATT against TNK2,inactive: -0.574
12,GGUACCUUGUGGUCUAUAATT against MAN2A1,inactive: -0.397
13,GCGAAUGGUUUCAAGAUAATT against PMS1,inactive: 0.0538
14,ACAAUAAGCUGGACCUCUATT against TLR9,inactive: -0.0834
15,CGUCAUUGCCGUUAAGCAATT against MAP2K7,inactive: -0.772
16,CCAUGGAUUUUGUACUGCUTT against VPS35,inactive: -0.511
17,CCCUCAAGAUGAUCCCGAUTT against SPRYD5,inactive: 0.151
18,AAAUCCCGGUGAUCAUCGATT against MAP1LC3A,inactive: 0
19,GCAACUCCCUGAAUUUUUATT against MYL1,inactive: 0.24
20,GCUUUCCGAUGAUGAGAGATT against LEO1,active: 1.2
21,GAACUUUUGGGACCAAAUATT against NME5,inactive: 0.393
22,GAAUUCCUCCUGAUAGUUUTT against ZBED4,inactive: -0.553
23,CAAACCUGGUGUUCGUGUATT against CDK5R2,inactive: -0.0965
24,GGACUGCUGGUUAUCCUGATT against GLB1,inactive: -0.543
25,GCUGAAUAUCUACACGGAATT against SLCO4A1,inactive: -0.0802
26,GCUGGUACCCGUCAACAAATT against ABCC10,active: -1.56
27,CACCGUUUAUGGAUUGGGATT against HOMER1,inactive: 0
28,CGAGAGUAUUGAUAAUUCATT against PI4KB,inactive: 0.105
29,UGAGAGAGUCCACUACUUATT against GPR162,inactive: 0.195
30,GGAUGUGCACUCUCAUUGATT against COPA,inactive: -0.807

# An excerpt of these results, with tabs:
row	Sequence	median seed-adjusted z-score
26	GCUGGUACCCGUCAACAAATT against ABCC10	active: -1.56
27	CACCGUUUAUGGAUUGGGATT against HOMER1	inactive: 0
